Measurements from PubChem BioAssay AID445 (National Center for Advancing Translational Sciences (NCATS), 2006).
Some of the results follow. Shown are side measurements of this screen, not its main read-out; they come without a call. Most of these compounds were active or inconclusive in the main read-out, so they are no random draw. Potencies come from curve fits of mixed quality, noted in brackets.

Assay: IkB Signaling
Settings: ABC-DLBCL IkBa-CBG/CBR dual luciferase ratio (green luciferase fused to IkBa over red control in OCI-Ly3 lymphoma cells), 4 h
How it was run: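 In this assay, an IκBα–CBG68 fusion accumulates when IKK-driven degradation is blocked; native CBR normalizes for cell number. OCI-Ly3 cells were treated 4 h with compound and doxycycline, then green and red light read after Chroma-Glo addition.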

[1] = measured here: control luc red channel unless noted

COc1ccc(CCNC(=O)CCn2c(=O)c3ccccc3n(CC(=O)Nc3ccc(C)cc3C)c2=O)cc1OC
AC50 [1]: 0.398 µM [rising, full curve]

COc1ccc(-c2cn3nc(SCC(=O)Nc4ccc(C)c(Cl)c4)ccc3n2)cc1
AC50 [1]: 2.51 µM [falling, full curve]

Cc1ccc(NC(c2ccc(Cl)cc2)c2nnc(-c3cccc(F)c3)o2)cc1C (centres undefined)
AC50 [1]: 25.1 µM [falling, single point]

CCN(CCCNC(=O)c1cc(Nc2ccccc2OC)nc2ccccc12)c1cccc(C)c1
AC50 [1]: 2.51 µM [falling, full curve]

COc1ccc(OC)c(CCNC(=O)c2c3c(nc4ccccc24)C(=O)N(C2CCCCC2)C3)c1
AC50 [1]: 10 µM [falling, partial curve]

O=S(=O)(NCC(Nc1ccc(Cl)cc1)c1ccccc1)c1ccccc1 (centres undefined)
AC50 [1]: 15.8 µM [falling, partial curve]

COc1cc(NC(=O)Nc2ccccc2)c(OC)cc1NC(=O)CN1CCCCC1
AC50 [1]: 31.6 µM [falling, partial curve]

CCCCCCSc1nsc(NC(C)=O)n1
AC50 [1]: 0.398 µM [rising, full curve]

Cc1ccc(CNCc2c(C(=O)O)n(Cc3ccc(C)cc3)c3cc(C)ccc23)cc1
AC50 [1]: 25.1 µM [falling, partial curve]

COc1ccc(-c2noc(CNS(=O)(=O)c3ccc(Br)cc3)n2)cc1OC
AC50 [1]: 31.6 µM [falling, single point]

Cc1ccc(-c2noc(CN(C(=O)COc3cc(C)cc(C)c3C)C(C)C)n2)cc1
AC50 [1]: 25.1 µM [falling, single point]

Cn1c(=O)c2c(c3ccccc31)OC(=O)CC2c1cccc(F)c1 (centres undefined)
AC50 [1]: 20 µM [falling, single point]

O=C(Nc1ccc(Cl)cc1)N1CCN(c2ccc3nnc(-c4ccccc4)n3n2)CC1
AC50 [1]: 25.1 µM [falling, single point]

Cc1ccc(-c2nnc3sc(CCc4ccccc4)nn23)cc1
AC50 [1]: 0.2 µM [rising, full curve, poor fit]

O=C(C1CCC(Cn2c(=O)c3sccc3n(Cc3ccccc3F)c2=O)CC1)N1CCCCC1 (centres undefined)
AC50 [1]: 31.6 µM [falling, single point]

COc1ccccc1N(CC(=O)NCCSCc1cccc(Cl)c1)S(C)(=O)=O
AC50 [1]: 12.6 µM [falling, partial curve]

CC(C)NC(=O)C1CCN(C(=O)c2cc3sccc3n2Cc2ccc(Cl)cc2)CC1
AC50 [1]: 5.01 µM [falling, partial curve]

Cc1cc(C)c(NC(=O)c2ncoc2-c2ccco2)c(C)c1
AC50 [1]: 39.8 µM [falling, single point]

COC(=O)c1cnn2c(C)c(Cc3c(C)cc(C)cc3C)c(C)nc12
AC50 [1]: 31.6 µM [falling, partial curve]

O=C(Nc1nnc(S(=O)(=O)N2CCCc3ccccc32)s1)c1ccccc1
AC50 [1]: 1 µM [rising, single point]

COc1ccc(NC(=O)CCn2c(=O)c3cccn3c3ccccc32)c(OC)c1
AC50 [1]: 0.02 µM [falling, full curve, poor fit]

Cc1[nH]nc(-c2ccc(O)c(C)c2O)c1-c1cnn(-c2ccccc2)c1
AC50 [1]: 10 µM [falling, partial curve]

CCNc1ccc2c(Cl)cc(=O)oc2c1
AC50 [1]: 0.794 µM [falling, full curve]

CC(=O)c1ccc(NC(=O)CN(C)S(=O)(=O)c2cccc3nsnc23)cc1
AC50 [1]: 15.8 µM [falling, partial curve]

COc1ccccc1-c1cc2nc(C)c(CCC(=O)NCc3cccc(Cl)c3)c(C)n2n1
AC50 [1]: 0.316 µM [falling, full curve]

CCCCn1c(C(C)NC(=O)c2ccccc2)nc2ccccc21 (centres undefined)
AC50 [1]: 20 µM [falling, partial curve, poor fit]

COC(=O)c1c(NC(=O)CS(=O)(=O)c2ccc(C)cc2)sc2c1CCCC2
AC50 [1]: 10 µM [falling, partial curve]

O=C(Nc1cccc(Cl)c1)c1ccc(F)c(S(=O)(=O)N2CCC3(CC2)OCCO3)c1
AC50 [1]: 25.1 µM [falling, partial curve]

CCN(C(=O)Cn1nnc2sc(-c3ccccc3)cc2c1=O)c1cccc(C)c1
AC50 [1]: 15.8 µM [falling, partial curve]

Cc1cc(NC(=O)CCNS(=O)(=O)c2ccc3c(c2)oc(=O)n3C)ccc1Br
AC50 [1]: 39.8 µM [falling, single point]

CCN(CC)C(=O)c1cc(-c2ccc(Cl)cc2)on1
AC50 [1]: 39.8 µM [falling, single point]

CCc1nn(CC(=O)NCc2ccccc2Cl)c(=O)c2cccn12
AC50 [1]: 3.98 µM [falling, full curve]

Cc1nc(-c2ccc(S(=O)(=O)Nc3ccc(C)c(N(C)C)c3)cc2)co1
AC50 [1]: 0.0794 µM [falling, full curve, poor fit]

O=C(COc1ccccc1[N+](=O)[O-])Nc1ccc(-c2nc3ccccc3s2)cc1
AC50 [1]: 0.0126 µM [rising, full curve, poor fit]

COc1ccccc1-n1c(-c2ccc(C)cc2)cn2c3c(=O)n(C)c(=O)n(C)c3nc12
AC50 [1]: 0.00631 µM [rising, full curve, poor fit]

COc1ccc(NC(=O)c2cnc[nH]2)cc1
AC50 [1]: 0.316 µM [rising, full curve, poor fit]

COc1ccc(S(=O)(=O)c2cc(NS(=O)(=O)c3ccc(Cl)cc3)c(C)c(C)c2O)cc1
AC50 [1]: 20 µM [falling, partial curve]

CCc1ccccc1NC(=O)c1cc(S(=O)(=O)N2CCCc3ccccc32)ccc1F
AC50 [1]: 25.1 µM [falling, single point]

CC(C)CCn1c(=O)c2sccc2n2c(CCCC(=O)NCc3ccc(F)cc3)nnc12
AC50 [1]: 31.6 µM [falling, partial curve]

Fc1cccc(-n2ncc3c2ncn2nc(-c4ccccc4Cl)nc32)c1
AC50 [1]: 0.794 µM [rising, full curve, poor fit]

Cc1cccc(N2CCN(C(=O)CCn3c(=O)c4cccn4c4cccnc43)CC2)c1C
AC50 [1]: 0.00631 µM [falling, full curve, poor fit]

CCOc1ccc(N(C)C(CNS(=O)(=O)c2ccccc2)c2ccccc2)cc1 (centres undefined)
AC50 [1]: 31.6 µM [falling, partial curve]

N#Cc1cccc(NC(=O)c2cc3c(s2)-c2ccc(Cl)cc2SC3)c1
AC50 [1]: 3.16 µM [rising, partial curve]

COc1ccccc1N1CCN(C(=O)c2cc(-c3ccccc3O)on2)CC1
AC50 [1]: 1.58 µM [falling, full curve]

CCOc1ccc(C(=O)Nc2cc(-c3nc4ccccc4s3)ccc2OC)cc1
AC50 [1]: 3.98 µM [rising, full curve]

Cc1cccc(NC(=O)C2CCCN(c3nc4ccccc4s3)C2)c1C (centres undefined)
AC50 [1]: 12.6 µM [falling, partial curve]

Cc1ccc(CCNC(=O)c2ccc(CS(=O)(=O)Cc3ccccc3F)o2)cc1
AC50 [1]: 12.6 µM [falling, partial curve]

COc1ccc(S(=O)(=O)N2CCN(Cc3cccc(Cl)c3)CC2)cc1
AC50 [1]: 15.8 µM [falling, partial curve]

O=S(=O)(Nc1ccc(Cl)cc1)c1cccc(S(=O)(=O)c2ccc(Cl)c(Cl)c2)c1
AC50 [1]: 20 µM [falling, partial curve]

CCCCN(C)C(=O)Cn1c(SCC(=O)Nc2ccc(C)c(C)c2)nc2ccccc21
AC50 [1]: 25.1 µM [falling, single point]

Cc1nc2ccccc2n1CCc1nc2c3ccccc3nc(SCc3ccc(F)cc3)n2n1
AC50 [1]: 1.26 µM [rising, full curve]

COc1ccccc1N1CCN(CC(O)COc2ccc(C)cc2C(C)(C)C)CC1 (centres undefined)
AC50 (measured here: IkB-luc green channel): 31.6 µM [falling, single point]
AC50 (measured here: control luc red channel): 25.1 µM [falling, partial curve]

CNc1nc(-c2ccc(Cl)cc2)cs1
AC50 [1]: 3.16 µM [rising, partial curve]

CCOC(=O)c1c(C)oc2nc(C)nc(NCC3CCN(Cc4cccc(Cl)c4)CC3)c12
AC50 [1]: 10 µM [falling, partial curve, poor fit]

CCOc1cc(CNC(=O)c2ccc3nc(CCc4ccccc4)oc3c2)ccc1OC
AC50 [1]: 3.16 µM [rising, partial curve]

Cc1ccc(S(=O)(=O)NCCc2csc3nc(-c4ccccc4C)nn23)cc1
AC50 [1]: 25.1 µM [falling, single point]

O=S(=O)(c1cccs1)N1CCN(CC(O)COc2cc(Cl)ccc2Cl)CC1 (centres undefined)
AC50 [1]: 15.8 µM [falling, partial curve]

Cc1ccc(CNC(=O)C(C)n2ccc3cc(S(=O)(=O)N4CCCC4)ccc32)cc1 (centres undefined)
AC50 [1]: 10 µM [falling, partial curve]

O=C(Nc1nnc(SCc2cc(=O)n3cc(Cl)ccc3n2)s1)c1cccc(F)c1
AC50 [1]: 0.316 µM [falling, full curve, poor fit]

O=C(c1ccc2c(Cl)c3c(nc2c1)CCCC3)N1CCN(c2ccccc2F)CC1
AC50 [1]: 12.6 µM [falling, partial curve]

CCc1ccc(-c2cn(-c3nc(C)cc(C)n3)c(=N)o2)cc1
AC50 [1]: 10 µM [falling, partial curve]

CCC(C(=O)N1CCN(c2ccccc2)CC1)n1nc(C)c2sc3ccccc3c2c1=O (centres undefined)
AC50 [1]: 5.01 µM [falling, partial curve]

COc1cccc(C2=CC(c3ccccc3F)n3c(nc4ccccc43)N2)c1 (centres undefined)
AC50 [1]: 15.8 µM [falling, partial curve]
